Literature values in US20230355612A1 (SHANGHAI BOCIMED PHARMACEUTICAL CO., LTD., priority 2020, published 2023).
Where a name gives a salt, the structure may show the parent alone. Some entries share one result that the patent states for a list of compounds.

Settings: provided by CN105218484A; cited from earlier work

Solubility, greater than 3 mg/mL:
cariprazine maleate
cariprazine phosphate
CN(C)C(=O)N[C@H]1CC[C@H](CCN2CCN(c3cccc(Cl)c3Cl)CC2)CC1 [cariprazine hydrochloride]
